Laboratory results from PubChem BioAssay AID192 (DTP/NCI, 2004).
The list does not hold the whole screen: it gathers tests that were run many times, whatever their T/C, doses with no T/C, and many T/C values between a quarter and a half above the control. Other doses and runs of a compound stand elsewhere. T/C is the treated group as % of the vehicle group. Some entries give survivors of the animals treated and no T/C: the source files T/C as zero there, which appears to mark a toxic dose or a test without result, not a measured value. Some survivor counts are full or nearly so, which does not show that the dose was tolerated: survival well below the control is almost never listed, so the zero probably covers shortened survival too. Counts of survivors are from the toxicity check (mostly the fifth day) where no day follows; animals may have died later. Schedules are NCI's codes, taken here to give the interval after Q, in days (D) or hours (H), and the number of doses after X. Some entries hold several experiments; the results are listed from low to high. For survival time, the PubChem record calls one and a half times the control and up active, and a quarter to a half above the control has no call in these data; cut-offs in other NCI protocols can differ. Some T/C values are followed by the survivors on the day toxicity was checked, most often the fifth; without a count, all were alive then.

Tested on: BDF1 mice, B16 melanoma ip, median survival T/C
Assay: NCI In Vivo Anticancer Drug Screen. Data for tumor model B16 Melanoma (intraperitoneal) in B6D2F1 (BDF1) mice
Settings: T/C endpoint: median survival time, higher T/C = longer survival
Summary of the method: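 Transplantable tumor model; survival or tumor size measured; reported as T/C, treated over vehicle control.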

[1] = dose: 100.0 mg/kg/injection, schedule: Q01DX009 (ip), vehicle: Klucel (hydroxypropylcellulose) (HPC)
[2] = dose: 200.0 mg/kg/injection, schedule: Q01DX009 (ip), vehicle: Klucel (hydroxypropylcellulose) (HPC)
[3] = dose: 400.0 mg/kg/injection, schedule: Q01DX009 (ip), vehicle: Klucel (hydroxypropylcellulose) (HPC)
[4] = dose: 50.0 mg/kg/injection, schedule: Q01DX009 (ip), vehicle: Klucel (hydroxypropylcellulose) (HPC)
[5] = dose: 100.0 mg/kg/injection, schedule: Q01DX009 (ip), vehicle: saline
[6] = dose: 400.0 mg/kg/injection, schedule: Q01DX009 (ip), vehicle: saline with Tween-80
[7] = dose: 50.0 mg/kg/injection, schedule: Q01DX009 (ip), vehicle: saline with Tween-80
[8] = dose: 100.0 mg/kg/injection, schedule: Q01DX009 (ip), vehicle: saline with Tween-80
[9] = dose: 200.0 mg/kg/injection, schedule: Q01DX009 (ip), vehicle: saline
[10] = dose: 400.0 mg/kg/injection, schedule: Q01DX009 (ip), vehicle: saline
[11] = dose: 7.2 mg/kg/injection, schedule: Q01DX001 (ip), vehicle: water
[12] = dose: 200.0 mg/kg/injection, schedule: Q01DX009 (ip), vehicle: saline with Tween-80

O=C(Oc1cccc(OC(=O)c2ccc(Cl)cc2)c1)c1ccc(Cl)cc1
survivor count [1]: 9 of 9 | survivor count [2]: 10 of 10 | survivor count [3]: 10 of 10

C[n+]1c(-c2cccc3ccccc23)c2cc(N)ccc2c2ccccc21
survivor count (dose: 25.0 mg/kg/injection, schedule: Q01DX009 (ip), vehicle: water): 5 of 10 | survivor count (dose: 50.0 mg/kg/injection, schedule: Q01DX009 (ip), vehicle: water): 0 of 10

C=C1C(=O)OC2CC1C(O)C/C(C)=C/CC/C(C)=C/C(O)CC2C (stereo unspecified)
survivor count [4]: 8 of 10 | survivor count [1]: 0 of 10 | survivor count [2]: 0 of 10

NC(=O)CNC1=C(N2CC2)C(=O)C(NCC(N)=O)=C(N2CC2)C1=O
T/C (dose: 2.0 mg/kg/injection, schedule: Q01DX009 (ip), vehicle: saline): 134 % of control | T/C (dose: 8.0 mg/kg/injection, schedule: Q01DX009 (ip), vehicle: saline): 137 % of control

O=[N+]([O-])c1cc2c(c([N+](=O)[O-])c1)OCOC2
survivor count [1]: 6 of 6 | survivor count [3]: 5 of 6

COc1ccc(NC(=O)Nc2ccc(OC)cc2)cc1
T/C [5]: 126 % of control

Cc1c(Cl)cccc1NC(=O)c1ccc([N+](=O)[O-])cc1
survivor count [6]: 10 of 10

C[n+]1ccc(C#N)c2ccccc21
survivor count (dose: 15.0 mg/kg/injection, schedule: Q01DX009 (ip), vehicle: saline): 6 of 6

C=C(Cl)C(=NC(C)(C)C)Nc1ccccc1C
survivor count [4]: 8 of 10

CC(=O)NNC(=O)c1ccccn1
survivor count [7]: 6 of 6 | survivor count [8]: 6 of 6 | survivor count (dose: 150.0 mg/kg/injection, schedule: Q01DX009 (ip), vehicle: water): 3 of 6 and 5 of 6 | survivor count (dose: 200.0 mg/kg/injection, schedule: Q01DX009 (ip), vehicle: water): 3 of 6

COc1cc2c3c(c1)-c1nc4ccccc4cc1CN3CCC2
survivor count (dose: 400.0 mg/kg/injection, schedule: Q04DX003 (ip), vehicle: alcohol): 1 of 10

C/C=C/C=C/c1cc2cc3c(c(O)c2c(=O)[nH]1)C1(CC3)C(O)=c2c(=O)c3c(=O)cc(OC)c(=O)c=3c(=O)c2=C1O (stereo unspecified)
survivor count (dose: 1.0 mg/kg/injection, schedule: Q01DX009 (ip), vehicle: DMSO): 10 of 10 | survivor count (dose: 2.0 mg/kg/injection, schedule: Q01DX009 (ip), vehicle: DMSO): 0 of 10

CC(CCc1ccccc1)NN (stereo unspecified)
T/C (dose: 12.5 mg/kg/injection, schedule: Q01DX009 (ip), vehicle: saline): 132 % of control | survivor count (dose: 50.0 mg/kg/injection, schedule: Q01DX009 (ip), vehicle: saline): 10 of 10 | survivor count [5]: 1 of 10 | survivor count [9]: 0 of 10 | survivor count [10]: 0 of 10

COc1cccc2c1C(=N)c1c(O)c3c(c(O)c1C2=O)C[C@@](O)(C(C)=O)C[C@@H]3OC1CC(N)C(O)C(C)O1 (stereo partly specified)
T/C (dose: 0.25 mg/kg/injection, schedule: Q01DX009 (ip), vehicle: water): 138 % of control | T/C (dose: 0.5 mg/kg/injection, schedule: Q01DX009 (ip), vehicle: water): 133 % of control | T/C (dose: 3.13 mg/kg/injection, schedule: Q01DX001 (ip), vehicle: water): 142 % of control | T/C [11]: 127 % of control | survivor count [11]: 8 of 8 | survivor count (dose: 8.0 mg/kg/injection, schedule: Q01DX009 (ip), vehicle: water): 10 of 10 | T/C (dose: 12.0 mg/kg/injection, schedule: Q01DX001 (ip), vehicle: water): 131 % of control | T/C (dose: 12.5 mg/kg/injection, schedule: Q01DX001 (ip), vehicle: water): 144 % of control | survivor count (dose: 16.0 mg/kg/injection, schedule: Q01DX009 (ip), vehicle: water): 10 of 10 | survivor count (dose: 20.0 mg/kg/injection, schedule: Q01DX001 (ip), vehicle: water): 8 of 8 | survivor count (dose: 25.0 mg/kg/injection, schedule: Q01DX001 (ip), vehicle: water): 10 of 10 | survivor count (dose: 33.3 mg/kg/injection, schedule: Q01DX001 (ip), vehicle: water): 5 of 8 and 8 of 8 | survivor count (dose: 50.0 mg/kg/injection, schedule: Q01DX001 (ip), vehicle: water): 8 of 10 | survivor count (dose: 100.0 mg/kg/injection, schedule: Q01DX001 (ip), vehicle: water): 4 of 10 | survivor count (dose: 200.0 mg/kg/injection, schedule: Q01DX001 (ip), vehicle: water): 0 of 10

COC1CCCCC1I (stereo unspecified)
survivor count (dose: 200.0 mg/kg/injection, schedule: Q01DX009 (ip), vehicle: alcohol): 9 of 10 | survivor count (dose: 300.0 mg/kg/injection, schedule: Q04DX003 (ip), vehicle: alcohol): 7 of 10

CCN(CC)CCOC(=O)N(c1ccccc1)c1ccccc1
survivor count [9]: 0 of 10 | survivor count [10]: 0 of 10

CCSCCC1(CCC(C)C)C(=O)NC(=Nc2ccccc2)NC1=O (stereo unspecified)
survivor count [12]: 10 of 10

CC(=O)CC(=O)Nc1cc(Cl)c(NC(=O)CC(C)=O)cc1Cl
T/C (dose: 400.0 mg/kg/injection, schedule: Q04DX003 (ip), vehicle: saline with Tween-80): 132 % of control [9 of 10 alive]

CCC(C(N)=O)C1=CCCCC1 (stereo unspecified)
survivor count [3]: 10 of 10

COc1ccc(OC)c(NC=O)c1
survivor count [7]: 10 of 10 | survivor count [8]: 10 of 10

CCCCCCCCCCCCCCCCCC(=O)NN
survivor count (dose: 200.0 mg/kg/injection, schedule: Q01DX009 (ip), vehicle: carboxymethylcellulose (CMC)): 10 of 10 | survivor count (dose: 400.0 mg/kg/injection, schedule: Q01DX009 (ip), vehicle: carboxymethylcellulose (CMC)): 9 of 10

O=C1C(NCCO)=C(N2CC2)C(=O)C(NCCO)=C1N1CC1
T/C (dose: 0.09 mg/kg/injection, schedule: Q01DX009 (ip), vehicle: saline): 137 % of control | T/C (dose: 0.18 mg/kg/injection, schedule: Q01DX009 (ip), vehicle: saline): 144 % of control | survivor count (dose: 0.75 mg/kg/injection, schedule: Q01DX009 (ip), vehicle: saline): 10 of 10 | survivor count (dose: 1.5 mg/kg/injection, schedule: Q01DX009 (ip), vehicle: saline): 7 of 10, 9 of 10, 10 of 10 | survivor count (dose: 3.0 mg/kg/injection, schedule: Q01DX009 (ip), vehicle: saline): 8 of 10 and 10 of 10

CN(C)N=Nc1cn(C)c(=O)n(C)c1=O
survivor count (dose: 100.0 mg/kg/injection, schedule: Q04DX003 (ip), vehicle: Klucel (hydroxypropylcellulose) (HPC)): 12 of 12

CC(=O)OC1C2(CC3N4C(=O)C5(CO)SSC4(CC31O)C(=O)N5C)OC(C)C(C)(C)C2=O (stereo unspecified)
survivor count (dose: 1.25 mg/kg/injection, schedule: Q01DX009 (ip), vehicle: saline): 8 of 10 | survivor count (dose: 2.5 mg/kg/injection, schedule: Q01DX009 (ip), vehicle: saline): 1 of 10 | survivor count (dose: 5.0 mg/kg/injection, schedule: Q01DX009 (ip), vehicle: saline): 0 of 10 | survivor count (dose: 10.0 mg/kg/injection, schedule: Q01DX009 (ip), vehicle: saline): 1 of 10

Nc1ccc(N=Nc2ccc(S(=O)(=O)O)cc2)cc1
survivor count [12]: 10 of 10 | survivor count [6]: 3 of 10
